In patent US11338007B2, “Combination formulation of three antiviral compounds” (priority 2016, dated 2022):
This continues a long series; more values of the same kind are listed elsewhere.

Assay: Stability of clinical film-coated tablets Batches A-D (Tables 14, 15A-15C)
Assay type: physicochemical
Details: for Total Imp./Deg. (%): tablets Batch C, 1 g desiccant
Procedure: FIGS. 10-12 depict additional dissolution profiles for the sofosbuvir/velpatasvir SSD/voxilaprevir SSD tablets having the formulation described in Table 13 and which were used in phase 1, 2, and 3 clinical studies, where the dissolution testing was conducted at pH 5.0 acetate buffer containing 2.0% w/v polysorbate 80. Four batches of the sofosbuvir/velpatasvir SSD/voxilaprevir SSD tablets were tested, with Batch A manufactured at 100 kg and Batches B, C and D manufactured at 145 kg. All other aspects of the formulation and manufacturing process were otherwise equivalent. The four batches were packed in the same commercial configuration: 28 count, 100 mL HPDE bottle with 1 g silica gel desiccant canister and a polyester fiber coil. […] Moreover, for Batch A, the amount dissolved at 30 min remained between 98 and 100% for sofosbuvir, between 90 and 92% for velpatasvir SSD, and between 89 and 93% for voxilaprevir SSD. […] For Batch D, the amount dissolved at 30 min remained at 100% for sofosbuvir, between 90 and 91% for velpatasvir SSD, and between 89 and 91% for voxilaprevir SSD. Release of velpatasvir SSD and voxilaprevir SSD from the sofosbuvir/velpatasvir SSD/voxilaprevir SSD tablets associated with all four Batches was complete after 60 minutes.
Stability data associated with the sofosbuvir/velpatasvir SSD/voxilaprevir SSD film-coated tablets (Batch A) are presented in Table 14. […] No upward trend in the content of degradation products was observed over the time period studied. The water content for packaged tablets remained between 1.9 and 2.3% through 6 months storage at 40° C./75% RH, 30° C./75% RH, and 25° C./60% RH. As summarized in Table 14, the packaged tablets (Batch A) were physically stable with no change in XRPD patterns after 6 months storage.
Stability data associated with the sofosbuvir/velpatasvir SSD/voxilaprevir SSD film-coated tablets (Batches B-D) are presented in Tables 15A-15C, respectively. […] No upward trend in the content of degradation products was observed over the time period studied. The water content for packaged tablets remained between 1.8 and 2.3% through 6 months storage at 40° C./75% RH, 30° C./75% RH, and 25° C./60% RH. The packaged tablets were physically stable with no change in XRPD patterns after 6 months storage.
For Batch D, the packaged tablets had acceptable chemical stability for up to 1 month under all conditions with total impurities/degradation products of sofosbuvir remaining at 0.0%, velpatasvir SSD remaining between 0.7 and 0.8%, and voxilaprevir SSD remaining at 0.0%. No upward trend in the content of degradation products was observed over the time period studied. The water content for packaged tablets remained between 1.9 and 2.3% through 1 month storage at 40° C./75% RH, 30° C./75% RH, and 25° C./60% RH.

CC(C)OC(=O)C(C)N[P@](=O)(OC[C@H]1O[C@@H](n2ccc(=O)[nH]c2=O)[C@](C)(F)[C@@H]1O)Oc1ccccc1 (stereo in doubt) [sofosbuvir, (S)-isopropyl 2-(((S)-(((2R,3R,4R,5R)-5-(2,4-dioxo-3,4-dihydropyrimidin-1(2H)-yl)-4-fluoro-3-hydroxy-4-methyltetrahydrofuran-2-yl)methoxy)(phenoxy)phosphoryl)amino)propanoate]
0.0%: Total Imp./Deg. (Batch B, 25° C./60% RH, 3 months) | Total Imp./Deg. (Batch B, 25° C./60% RH, 6 months) | Total Imp./Deg. (Batch B, 30° C./75% RH, 3 months) | Total Imp./Deg. (Batch B, 30° C./75% RH, 6 months) | Total Imp./Deg. (Batch B, 40° C./75% RH, 1 month) | Total Imp./Deg. (Batch B, 40° C./75% RH, 3 months) | Total Imp./Deg. (Batch B, 40° C./75% RH, 6 months) | Total Imp./Deg. (Batch D, 40° C./75% RH, 1 month) | Total Imp./Deg. (Batch D, Initial) | Total Imp./Deg. (%) (25° C./60% RH, 3 months) | Total Imp./Deg. (%) (25° C./60% RH, 6 months) | Total Imp./Deg. (%) (30° C./75% RH, 3 months) | Total Imp./Deg. (%) (30° C./75% RH, 6 months) | Total Imp./Deg. (%) (40° C./75% RH, 1 month) | Total Imp./Deg. (%) (40° C./75% RH, 3 months) | Total Imp./Deg. (%) (40° C./75% RH, 6 months) | Total Imp./Deg. (%) (Initial, time 0)
